No constants are given. Whether binding was seen depends on the method and setting. For some assays here: In cells and extracts the contact can be indirect. Some binding calls cover weakened binding; strength is not graded here. Where a sequence is shown, tags or fusion partners need not be part of it.

The source of these data is publication PMC12310523.

Assay [1] deals with T1, Flag–TTP (mouse), N-terminally Flag-tagged tristetraprolin (mouse) (UniProt P22893).
T1 sequence: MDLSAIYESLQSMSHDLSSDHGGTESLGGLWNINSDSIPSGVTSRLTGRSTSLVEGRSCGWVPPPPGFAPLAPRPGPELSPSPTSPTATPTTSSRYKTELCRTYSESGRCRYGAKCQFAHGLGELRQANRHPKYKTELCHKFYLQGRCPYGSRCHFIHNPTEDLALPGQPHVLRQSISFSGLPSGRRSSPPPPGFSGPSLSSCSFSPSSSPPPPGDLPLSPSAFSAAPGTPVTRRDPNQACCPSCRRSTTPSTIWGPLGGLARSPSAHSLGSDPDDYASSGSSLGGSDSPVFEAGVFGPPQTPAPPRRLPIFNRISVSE
As to the kind of experiment: co-IP; anti-Flag M2 agarose beads on lysates of HEK293T cells co-transfected with Flag–TTP and HA–RESIST or mCherry; lysate treated with RNase A; 150 mM NaCl, washes with 300 mM NaCl; immunoblot.

Assay [2] has as its target T2, full-length human His6–MBP–RESIST–StrepII (human) (UniProt Q3ZCQ2).
T2 sequence: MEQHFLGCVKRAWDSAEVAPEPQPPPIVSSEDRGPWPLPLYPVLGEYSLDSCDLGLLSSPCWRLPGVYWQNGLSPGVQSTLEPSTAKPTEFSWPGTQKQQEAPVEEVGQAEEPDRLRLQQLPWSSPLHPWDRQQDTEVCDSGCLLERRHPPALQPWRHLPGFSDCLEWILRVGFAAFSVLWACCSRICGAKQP
As to the kind of experiment: pull-down; 250 pmol His6–MBP–RESIST–StrepII held by its C-terminal StrepII tag on streptavidin agarose; 500 pmol NOT9 module for 1 h; 50 mM HEPES pH 7.5, 200 mM NaCl, 0.03% Tween-20, 6 °C; eluted with 50 mM biotin; SDS–PAGE, Coomassie; both purified.

Take “CNOT1 (endogenous, HEK293T cells) (from UniProt A5YKK6 1-2376)”: the binding result in assay [1] was “binds”.

“NOT9 module: human CNOT9 and CNOT1 (amino acids 1351–1588) (from UniProt Q92600 1-299; A5YKK6 1351-1588) (complex)”: in assay [2], the binding result is recorded as “binds”.
